Measurements reported in PubChem BioAssay AID1259326 (Drosophila RNAi Screening Center, 2017).
Shown is a random part of 573 deposited reagents. Over the whole deposit, 39 (6.8%) got an active call. 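All actives have raised ATP, meaning more surviving cells; in these data active calls sit at averaged z-scores near 1.5 or above.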 Raw values are not corrected between plates. The numbers tell different reagents against one gene apart. Not given: the amount of reagent.

Purpose: 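RNAi screen for genes modifying zinc chloride toxicity in fly cells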
Cells: Drosophila S2R+ cells
Knock-down reagent: long dsRNA against Drosophila genes
Time to read-out: about 5 days (4 days of RNAi, then 1 day of zinc)
Challenge: zinc chloride added to 15 mM final for one day
Read-out: 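Cellular ATP measured by luciferase light as a viable-cell proxy, after 4 days of RNAi and 1 day in 15 mM zinc chloride; replicate z-scores averaged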
Direction: averaged z-score: higher = more ATP than other wells, i.e. more surviving cells, after zinc; ATP luminescence: higher = more ATP, i.e. more surviving cells
Active means: 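Active if the averaged z-score exceeds 1.5 or falls under -1.5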

For Lst8 #1, what was measured?
averaged z-score: 0.285; ATP luminescence, replicate 1: 76496; ATP luminescence, replicate 2: 1.07e5; call: inactive

What did the screen give for Lst8 #2?
averaged z-score: -0.198; ATP luminescence, replicate 1: 61884; ATP luminescence, replicate 2: 75690; call: inactive

With Galphaq #1, what does the deposit list?
averaged z-score: -0.11; ATP luminescence, replicate 1: 89190; ATP luminescence, replicate 2: 72894; call: inactive

What is on record for Galphaq #2?
averaged z-score: -0.266; ATP luminescence, replicate 1: 75518; ATP luminescence, replicate 2: 69292; call: inactive

With Galphaq #3, how do the results read?
averaged z-score: -0.0437; ATP luminescence, replicate 1: 72603; ATP luminescence, replicate 2: 74524; call: inactive

With nudC #1, what was measured?
averaged z-score: 0.0365; ATP luminescence, replicate 1: 73014; ATP luminescence, replicate 2: 74129; call: inactive

What did the screen give for nudC #2?
averaged z-score: 0.0672; ATP luminescence, replicate 1: 94908; ATP luminescence, replicate 2: 75861; call: inactive

How did the screen score nudC #3?
averaged z-score: -0.468; ATP luminescence, replicate 1: 76445; ATP luminescence, replicate 2: 57185; call: inactive

With Glys #1, how do the results read?
averaged z-score: -0.537; ATP luminescence, replicate 1: 75415; ATP luminescence, replicate 2: 96364; call: inactive

What did the screen give for Glys #2?
averaged z-score: -0.115; ATP luminescence, replicate 1: 64936; ATP luminescence, replicate 2: 72843; call: inactive

A portion taken from the entries so far, for reference:
Lst8 #1 — averaged z-score: 0.285; ATP luminescence, replicate 1: 76496; ATP luminescence, replicate 2: 1.07e5; call: inactive
Lst8 #2 — averaged z-score: -0.198; ATP luminescence, replicate 1: 61884; ATP luminescence, replicate 2: 75690; call: inactive

Continued.
How did the screen score MYPT-75D #1?
averaged z-score: -0.249; ATP luminescence, replicate 1: 71059; ATP luminescence, replicate 2: 1.02e5; call: inactive

With MYPT-75D #2, what was measured?
averaged z-score: -0.228; ATP luminescence, replicate 1: 66754; ATP luminescence, replicate 2: 71179; call: inactive

What did the screen give for cher #1?
averaged z-score: -0.0232; ATP luminescence, replicate 1: 91420; ATP luminescence, replicate 2: 83870; call: inactive

How did the screen score cher #2?
averaged z-score: 1.97; ATP luminescence, replicate 1: 1.26e5; ATP luminescence, replicate 2: 1.07e5; call: active

How did the screen score cher #3?
averaged z-score: -0.132; ATP luminescence, replicate 1: 71419; ATP luminescence, replicate 2: 79000; call: inactive

Which result is listed for spg #1?
averaged z-score: -0.502; ATP luminescence, replicate 1: 57597; ATP luminescence, replicate 2: 67200; call: inactive

Which result is listed for spg #2?
averaged z-score: -0.122; ATP luminescence, replicate 1: 91831; ATP luminescence, replicate 2: 74352; call: inactive

With spg #3, what was measured?
averaged z-score: -0.239; ATP luminescence, replicate 1: 74095; ATP luminescence, replicate 2: 75913; call: inactive

Which result is listed for Atg8a #1?
averaged z-score: 1.55; ATP luminescence, replicate 1: 98686; ATP luminescence, replicate 2: 1.01e5; call: active

For Atg8a #2, what does the deposit list?
averaged z-score: 0.605; ATP luminescence, replicate 1: 1.02e5; ATP luminescence, replicate 2: 66857; call: inactive

What did the screen give for Atg8a #3?
averaged z-score: 2.97; ATP luminescence, replicate 1: 1.77e5; ATP luminescence, replicate 2: 98711; call: active

How did the screen score Sec23 #1?
averaged z-score: 0.262; ATP luminescence, replicate 1: 95601; ATP luminescence, replicate 2: 84644; call: inactive

Which result is listed for Sec23 #2?
averaged z-score: 0.395; ATP luminescence, replicate 1: 76496; ATP luminescence, replicate 2: 86591; call: inactive

With Sec23 #3, what does the deposit list?
averaged z-score: -0.503; ATP luminescence, replicate 1: 74404; ATP luminescence, replicate 2: 51995; call: inactive
